Experimental data from paper PMC11381343.

Tests used:
[1] = target: T1, human RAP1 with a C-terminal Flag-tag (human) (UniProt Q9NYB0); assay: pull-down; Flag-tagged RAP1 (2 μg) and His-tagged TRF2 (2 μg) in 30 μl buffer P (25 mM Tris-HCl pH 7.5, 10% glycerol, 0.5 mM EDTA, 0.01% Igepal, 1 mM DTT, 150 mM KCl) on ice 30 min; RAP1 captured on anti-Flag M2 resin at 4°C; Western blot for TRF2 and Flag; also at 300 mM KCl; both purified
T1 sequence: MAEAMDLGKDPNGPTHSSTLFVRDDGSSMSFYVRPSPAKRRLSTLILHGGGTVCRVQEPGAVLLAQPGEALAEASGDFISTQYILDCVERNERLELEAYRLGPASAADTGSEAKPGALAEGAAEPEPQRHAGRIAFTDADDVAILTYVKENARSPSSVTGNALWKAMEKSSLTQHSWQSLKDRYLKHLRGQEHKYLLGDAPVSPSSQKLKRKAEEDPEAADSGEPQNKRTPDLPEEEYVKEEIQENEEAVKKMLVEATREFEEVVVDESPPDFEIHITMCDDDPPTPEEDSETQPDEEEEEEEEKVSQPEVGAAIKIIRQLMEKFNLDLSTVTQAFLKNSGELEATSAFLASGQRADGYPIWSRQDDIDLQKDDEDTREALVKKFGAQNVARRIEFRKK

[2] = target: T2, human RAP1 F336R with a C-terminal Flag-tag (human) (UniProt Q9NYB0); assay: as above
T2 sequence: T1 sequence with F336R

| binding [1] | Substance | binding [2] |
| --- | --- | --- |
| binds | His-tagged human TRF2 lacking the basic domain (domain or fragment) | – |
| binds | His-tagged human TRF2, wild type | no binding (tested: 2 μg of each in 30 μl) |

| Substance | binding [1] | binding [2] |
| --- | --- | --- |
| His-tagged human TRF2 L288R | no binding (tested: 2 μg of each in 30 μl) | – |

Positions count from the first letter of the chain named. Results are given in words; binding and its absence hold for the method and conditions named. For some of these results: Binding calls can cover weak binding; strength is not graded here. Where a sequence is shown, tags or fusion partners need not be part of it.
